The values below come from patent US20050267204A1, “Synergistic gold-containing compositions” (MEDICAL INNOVATIONS LIMITED, priority 1996, published 2005).

The structures appear in SMILES notation.

Series [1] has as its system TPA-induced inflammatory cell infiltration into the dermis. Put plainly: Inhibition of TPA-induced inflammatory cell infiltration into the dermis of mice. Type of series: in vivo, BALB/c mice. The following applies: Hill coefficient; means ± SD. How it is done: (§1) The mice were housed in stainless steel cages, 6 mice per cage under normal laboratory conditions (room temperature at about 22° C.) at least 7 days before the experiments for acclimatization. Food and water were allowed ad libitum throughout the experiment period. The backs of the mice were shaved with an electric clipper two days before each treatment and only those mice showing no hair regrowth were used (i.e., the mice in the resting phase of the hair growth cycle were selected). During treatment, the mice were held with their tails and put on top of the cage so that they grasped the cage and rested there. The solutions were applied to an area approximately 2 cm×2 cm on the shaved back of the mice by using a “Pipetman” to apply the solution. If auranofin ointment or ointment base was applied, the amount was standardized by using a microspatula which was crimped at one end, the ointment was then put into the ridge and the excess removed by means of another microspatula and applied sparingly twice a day. After a fixed time, the mice were killed routinely by cervical dislocation between 9 a.m. and 11 a.m. to avoid variations due to circadian rhythms, and an area (1 cm×1 cm) was excised from the centre of the treated area by scalpel and scissors. The rest of the tissues were disposed by combustion. The tissues were then fixed, embedded, sectioned and stained.
Infiltration of inflammatory cells was determined by the same image analysis system using the section taken from the block of mouse skin embedded in paraffin wax or Spurr's resin and stained with haematoxylin and eosin or toluidine blue respectively. For each section, 10 fields, unless otherwise stated, were chosen randomly and the cell density per mm^2 of field determined. The average value for the 10 fields was obtained and entered as one value for each mouse. The mean and SEM for the six mice in each treatment group were calculated.
The measurement of the inflammatory cell infiltration included the background values which included other materials in the dermis stained in the same way.
(§2) The percent inhibition of drug on TPA-induced skin responses (i.e., epidermal hyperplasia, inflammatory cell infiltration and skin-fold thickness) was calculated by using the following formula: [formula]
(§3) This provides estimates of (a) the potency, (b) the efficacy or maximum effect (Emax) and the slope of the log concentration-response curve by using Hill coefficient (γ). The Hill Equation may be expressed as follows: [formula] where IC50 is the drug concentration producing 50% of the maximal response and Emax refers to the maximal effect produced by the drug and is also termed efficacy. Efficacy is the measurement of the intrinsic ability of a drug to initiate a response once it occupies receptor sites. […] The Hill coefficient (γ) measures the slope of the dose-effect curve which can be markedly influenced by the shape of the curve that describes the binding of the drug to the receptor. For many drugs, y lies between 0.6 and 1.5. […] On the other hand, when γ is less than 1, with a shallow hyperbolic concentration effect relationship, the activity occurs over a wide range of drug levels.
(§4) In the present study, concentration-response curves were obtained for a series of corticosteroids. In these experiments, curve fitting was accomplished using a computer programme called “The Scientist” (MicroMath Scientific Software, Salt Lake City, Utah, USA.) in which the parameters, Emax, IC50 and Hill coefficient (γ) for each steroids were estimated by using non-linear regression and least square fits.
Mice were divided into treatment groups. TPA and corticosteroids were premixed to the concentrations required and applied to the backs of mice immediately.

Series [2] concerns TPA-induced epidermal hyperplasia. Put plainly: Inhibition of TPA-induced epidermal hyperplasia (epidermal thickness) on back skin of mice. Type of series: in vivo, BALB/c mice. The following applies: Hill coefficient; means ± SD. How it is done: as §1
Epidermal thickness was determined by image analysis. This image analysis system was a minicomputer (Tracor Northern TN8500) attached to a light microscope (Zeiss Axioplan) and a camcorder (Sony DXC-3000P). Sections were taken from each tissue block and 20 measurements were taken at fixed intervals from each section. The average value for the 20 measurements was obtained and entered as one value for each mouse. The mean and SEM for the six mice in each treatment group were calculated.
as §2, §3, §4
Mice were divided into treatment groups. TPA and corticosteroids were premixed to the concentrations required and applied to the backs of mice immediately. For those steroids not very soluble in acetone (i.e., betamethasone, dexamethasone, hydrocortisone and hydrocortisone acetate), the drugs were dissolved in 100 μL dimethylformamide before further dilution with acetone. The efficacy of corticosteroids in inhibiting epidermal hyperplasia, inflammatory cell infiltration and skin-fold thickness was assessed as described previously. Concentration-response curves were determined after computer-fitting of data.

For the compound `CCC(=O)OCC(=O)[C@@]1(OC(=O)CC)[C@H](C)C[C@H]2[C@H]3[C@H]([C@@H](O)C[C@@]21C)[C@@]1(C)C=CC(=O)C=C1C[C@H]3Cl` [Alclometasone dipropionate], the “Gamma (γ)” value in series [1] stood at 0.97 ± 0.26; in series [2], 0.67 ± 0.12.
On the same counts, the results for `CCC(=O)OCC(=O)[C@@]1(OC(=O)CC)[C@@H](C)C[C@H]2[C@@H]3CCC4=CC(=O)C=C[C@]4(C)[C@@]3(F)[C@@H](O)C[C@@]21C` [Betamethasone dipropionate, betamethasone dipropionate] are 0.52 ± 0.06 and 0.54 ± 0.06.
With `CCCCC(=O)O[C@]1(C(=O)CO)[C@@H](C)C[C@H]2[C@@H]3CCC4=CC(=O)C=C[C@]4(C)[C@@]3(F)[C@@H](O)C[C@@]21C` [Betamethasone valerate, betamethasone valerate], the results for the “Gamma (γ)” value in series [1] and in series [2] were 0.93 ± 0.07 and 0.94 ± 0.12, respectively.
For the compound `CC1(C)O[C@@H]2C[C@H]3[C@@H]4C[C@H](F)C5=CC(=O)C=C[C@]5(C)[C@@]4(F)[C@@H](O)C[C@]3(C)[C@]2(C(=O)CO)O1` [Fluocinolone acetonide, fluocinolone acetonide], the figures for the “Gamma (γ)” value in series [1] and in series [2] were 1.05 ± 0.14 and 0.75 ± 0.23, respectively.
On the same counts, the results for `C[C@@H]1C[C@H]2[C@@H]3C[C@H](F)C4=CC(=O)C=C[C@]4(C)[C@H]3[C@@H](O)C[C@]2(C)[C@H]1C(=O)COC(=O)C(C)(C)C` [Fluocortolone 21-pivalate] are 0.94 ± 0.21 and 0.97 ± 0.30.
On the same counts, the results for `CC1(C)O[C@@H]2C[C@H]3[C@@H]4CCC5=CC(=O)CC[C@]5(C)[C@@]4(F)[C@@H](O)C[C@]3(C)[C@]2(C(=O)CCl)O1` [Halcinonide] are 0.60 ± 0.11 and 0.78 ± 0.06.
Regarding `CC(=O)OCC(=O)[C@@]1(O)CC[C@H]2[C@@H]3CCC4=CC(=O)CC[C@]4(C)[C@H]3[C@@H](O)C[C@@]21C` [Hydrocortisone acetate, hydrocortisone acetate], the figures for the “Gamma (γ)” value in series [1] and in series [2] were 1.11 ± 0.27 and 0.79 ± 0.13, respectively.
In the same order, the values of `C[C@]12CCC(=O)C=C1CC[C@@H]1[C@@H]2[C@@H](O)C[C@@]2(C)[C@H]1CC[C@]2(O)C(=O)CO` [Hydrocortisone, hydrocortisone] are 0.57 ± 0.26 and 0.96 ± 0.17.
In the same order, the values of `C[C@@H]1C[C@H]2[C@@H]3CCC4=CC(=O)C=C[C@]4(C)[C@@]3(Cl)[C@@H](O)C[C@]2(C)[C@@]1(OC(=O)c1ccco1)C(=O)CCl` [Mometasone furoate, mometasone furoate] are 0.69 ± 0.14 and 0.79 ± 0.11.
